The campaign covered roughly 360,000 compounds. About 7,500 (2.1%) were called active. The inconclusive results got no clear call from the source; some entries with a clear call stand among them for comparison. The call rests on the fitted dose curve; in most records, active means well fitted inhibition curve with a large enough effect; inconclusive means small, poorly fitted or top-dose-only effect, or effect the other way; inactive means flat fitted curve, though single readings scatter. A potency beside an inconclusive call is a rough fit, not a confirmed value.
Assay: Nrf2 qHTS screen for inhibitors; further: nearly all actives have a fitted effect of over 60% in size
Conditions: A549 ARE-Fluc reporter, luciferase luminescence, 18-24 h; activity change, negative = inhibition: at 46 µM (top of the series)
How it was run: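 A549 ARE_Fluc cells (5000/well, 5% FBS OPTI-MEM) pre-incubated 2 h, then treated with compounds 18-24 h at 37C/5% CO2 in concentration-response. CellTiter-Fluor viability read first; BugLite luciferase luminescence after 15 min at room temperature gives Nrf2 activity.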
On the % scale 0 is the no-effect control and ±100 the full control effect; potency means the concentration at half of the fitted maximal effect.

Row | Compound | Potency | activity change, negative = inhibition
1 | Cc1csc2ncnc(N3CCN(C(=O)Nc4ccc(OC(F)(F)F)cc4)CC3)c12 | active: 23.1 µM | 
2 | COc1ccc(N(C)S(=O)(=O)c2cccc(C(=O)Nc3cccc(C(=O)NC4CC4)c3)c2)cc1 | inconclusive: 20.6 µM [falling, single point] | 
3 | COc1ccc(N2CCN(C(=O)CCCSc3nc4ccccc4[nH]3)CC2)cc1 | inconclusive: 16.4 µM [falling, partial curve] | 
4 | CCN(CC)CCN(C(=O)/C=C/c1cccs1)c1nc2ccc(OC)cc2s1 | inconclusive: 29.1 µM [falling, single point] | 
5 | CCOc1ccc2c(c1)C(C)=CC(C)(C)N2S(=O)(=O)c1ccc(NC(C)=O)cc1 | inconclusive: 0.92 µM [activator, partial curve] | 
6 | O=C1CN(c2ccc(Br)cc2)C(=O)N1CC(=O)N1CCCc2ccccc21 | inconclusive: 23.1 µM [falling, partial curve, poor fit] | 
7 | COc1ccc(CC(NC(C)=O)C(=O)NC2CCN(C(=O)NCc3ccccc3)CC2)cc1OC (stereo unspecified) | inconclusive: 29.1 µM [activator, single point] | 
8 | COc1ccc(NC(=O)c2cc(OC)c(OC)c(OC)c2)cc1S(=O)(=O)N1CCCCC1 | inconclusive: 16.4 µM [falling, single point] | 
9 | Cc1cc(C)c(C(=O)CSC2=NC(N)=C(C#N)C3(CCCCC3)C2C(N)=O)cc1C (stereo unspecified) | inconclusive: 32.6 µM [falling, partial curve, poor fit] | 
10 | COc1ccc(-c2cc(-c3ccc(OC)cc3)[nH]n2)cc1 | inconclusive: 20.6 µM [activator, partial curve, poor fit] | 
11 | CCc1ccc(NC(=O)CSc2nc3ncccc3[nH]2)cc1 | inconclusive: 16.4 µM [activator, partial curve] | 
12 | O=S(=O)(c1ccccc1)c1nc(-c2ccc(F)cc2)oc1N1CCCCCC1 | active: 25.9 µM | 
13 | Clc1ccc(Cn2cc3c(n2)-c2cc4ccccc4n2C3)cc1 |  | inactive: 0.298%
14 | CC(=Nc1ccccc1)C1=C(O)C(Cc2ccc(O)cc2)NC1=O (stereo unspecified) | inconclusive: 7.31 µM [activator, partial curve] | 
15 | COc1ccc(-n2nc(C(=O)NCC(=O)Nc3cccc(Cl)c3)c3ccccc3c2=O)cc1OC | active: 14.6 µM | 
16 | CC1CCc2c(C(=O)Nc3nccs3)csc2C1 (stereo unspecified) | inconclusive: 16.4 µM [activator, partial curve, poor fit] | 
17 | CC(C)NC(=O)c1ccccc1NC(=O)C1COc2ccccc2O1 (stereo unspecified) | inconclusive: 16.4 µM [falling, partial curve, poor fit] | 
18 | S=C(NCc1ccco1)N1CCN(c2nc(-c3ccc(Cl)cc3)cs2)CC1 | inconclusive: 7.31 µM [falling, partial curve] | 
19 | Cc1c(-c2ccc(OCc3ccccc3)cc2)nc2ccccc2c1C(=O)O | inconclusive: 29.1 µM [activator, single point] | 
20 | CCc1ccccc1N1CSC2=C(C#N)C(c3ccccc3F)CC(=O)N2C1 (stereo unspecified) |  | inactive: -4.55%
21 | COc1ccc(Nc2ccc(S(=O)(=O)N3CCCCC3)cc2[N+](=O)[O-])cc1 | active: 7.31 µM | 

Sorted by molecular weight (smallest number first): some entries from above
Row | Compound | Potency | activity change, negative = inhibition
16 | CC1CCc2c(C(=O)Nc3nccs3)csc2C1 (stereo unspecified) | inconclusive: 16.4 µM [activator, partial curve, poor fit] | 
18 | S=C(NCc1ccco1)N1CCN(c2nc(-c3ccc(Cl)cc3)cs2)CC1 | inconclusive: 7.31 µM [falling, partial curve] | 
1 | Cc1csc2ncnc(N3CCN(C(=O)Nc4ccc(OC(F)(F)F)cc4)CC3)c12 | active: 23.1 µM | 

More entries:

Row | Compound | Potency | activity change, negative = inhibition
22 | N/C(=N\OCc1ccc([N+](=O)[O-])cc1)c1ccncc1 | inconclusive: 23.1 µM [activator, single point] | 
23 | Cc1ccc(Cn2c(CCCNC(=O)C3CCCCC3)nc3ccccc32)cc1 | inconclusive: 25.9 µM [falling, single point] | 
24 | O=C(Cn1ncc2c(Cl)cccc21)NCc1cccc(Br)c1 | inconclusive: 13 µM [activator, partial curve] | 
25 | Cc1cccc(-n2nnnc2SCC(=O)NCC2CCCO2)c1 (stereo unspecified) |  | inactive: 5.69%
26 | Cc1ccc(-c2c[n+]3c(n2-c2ccccc2)SCC3)cc1 | active: 2.31 µM | 
27 | CCOc1cc(CNc2ccc(O)cc2)cc(Br)c1OCc1ccccc1F | inconclusive: 9.2 µM [falling, partial curve] | 
28 | N#Cc1ccccc1NC(=O)COc1c(Br)cc(Br)c2cccnc12 | inconclusive: 1.46 µM [activator, full curve, poor fit] | 
29 | Cc1nc2cc(NC(=O)N3CCN(c4ccccn4)CC3)ccc2o1 |  | inactive: -9.2%
30 | COc1ccc(NC(=O)Cn2nnc(C(=O)NCc3cccs3)c2N)c(OC)c1 | active: 18.4 µM | 
31 | Cc1cc(-c2ccccc2)c2c(=O)[nH][nH]c2n1 | inconclusive: 3.26 µM [activator, partial curve, poor fit] | 
32 | CN(C)C(CNC(=O)c1ccc(NC(=O)c2cccs2)cc1)c1ccccc1 (stereo unspecified) | inconclusive: 18.4 µM [activator, partial curve] | 
33 | CN(C)c1ccc(C(=O)OCC(=O)NCCCc2ccccc2)cc1 | inconclusive: 6.51 µM [falling, partial curve, poor fit] | 
34 | COc1ccc(OC)c(-c2cc(C(=O)N3CCc4ccccc4C3)no2)c1 | inconclusive: 29.1 µM [falling, single point] | 
35 | CC(C)CCNC(=O)c1ccc2c(c1)N(Cc1ccccc1F)C(=O)c1ccccc1S2=O (stereo unspecified) | inconclusive: 20.6 µM [falling, single point] | 
36 | Cc1ccc(S(=O)(=O)n2nc(-c3ccc(Cl)cc3)nc2NCc2ccco2)cc1 | inconclusive: 3.66 µM [falling, full curve, poor fit] | 
37 | CCOc1cc2c(cc1OCC)C(c1c(F)cccc1Cl)CC(=O)N2 (stereo unspecified) | inconclusive: 11.6 µM [falling, partial curve, poor fit] | 
38 | COc1ccc(-c2nc3c(s2)CN(S(C)(=O)=O)CC3)cc1OC | inconclusive: 4.61 µM [activator, full curve, poor fit] | 
39 | CCCCCCC1CCC(C(=O)NC(CCSC)C(=O)NC(C(=O)OC)C(C)C)CC1 (stereo unspecified) | inconclusive: 18.4 µM [falling, single point] | 
40 | CCOC(=O)c1cccc(NC(=O)Nc2ccc(OCC)cc2)c1 | inconclusive: 20.6 µM [falling, single point] | 
41 | COC(=O)c1cc(NC(=O)CCc2c(C)nc3cc(-c4ccccc4)nn3c2C)cc(C(=O)OC)c1 |  | inactive: 11.1%
